The other results are listed elsewhere or left out.
Key:
Experiment in all cases: log2 fold change, soluble protein after heating vs DMSO (PISA); higher = thermal stabilisation; K562 lysate, 10 uM; active = over 0.2 and 3.5 SD of the protein, either way, in both replicates (recomputed)
[1] = compound: C#Cc1cccc(Nc2ncnc3cc(OCCOC)c(OCCOC)cc23)c1 [erlotinib]
In short: (§1)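 Dounce homogenisation of K562 pellets in PBS pH 7.4 with 1 mM MgCl2 produced a crude extract, used at 1 mg/mL protein. Exposure to 10 μM compound lasted 30 min, and aliquots were then heated for 3 min across 48°C-58°C, pooled and brought to 0.5% NP-40 at 4°C. The supernatant after 21,000xg for 90 min was quantified by TMTpro 16plex LC-MS/MS with channel sums equalised. Duplicate values are given as log-two fold change in thermal stability relative to solvent controls.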

Protein sequences, listed by entry. Tags and fused reporters are not part of them. Lines headed by an entry give the natural chain unless they say otherwise; changes in a name come on top.
UniProt Q8NCG7: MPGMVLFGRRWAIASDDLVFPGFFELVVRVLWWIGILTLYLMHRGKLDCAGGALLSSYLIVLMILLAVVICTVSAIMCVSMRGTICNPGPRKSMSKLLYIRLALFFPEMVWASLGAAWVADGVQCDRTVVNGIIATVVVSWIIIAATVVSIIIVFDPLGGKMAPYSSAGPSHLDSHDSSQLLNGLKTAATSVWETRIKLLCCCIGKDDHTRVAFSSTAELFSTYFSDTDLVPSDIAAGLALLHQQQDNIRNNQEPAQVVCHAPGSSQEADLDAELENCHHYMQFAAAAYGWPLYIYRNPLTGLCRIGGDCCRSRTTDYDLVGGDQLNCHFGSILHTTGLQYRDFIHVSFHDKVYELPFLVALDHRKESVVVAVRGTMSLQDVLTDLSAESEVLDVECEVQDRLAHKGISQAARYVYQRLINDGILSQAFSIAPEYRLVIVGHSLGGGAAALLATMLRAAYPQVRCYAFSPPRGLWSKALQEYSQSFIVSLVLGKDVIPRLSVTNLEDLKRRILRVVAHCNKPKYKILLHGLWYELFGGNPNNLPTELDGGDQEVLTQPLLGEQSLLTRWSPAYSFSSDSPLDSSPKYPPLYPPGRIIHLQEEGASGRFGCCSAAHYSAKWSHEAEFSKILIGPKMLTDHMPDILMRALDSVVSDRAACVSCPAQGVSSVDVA
UniProt Q96GQ7: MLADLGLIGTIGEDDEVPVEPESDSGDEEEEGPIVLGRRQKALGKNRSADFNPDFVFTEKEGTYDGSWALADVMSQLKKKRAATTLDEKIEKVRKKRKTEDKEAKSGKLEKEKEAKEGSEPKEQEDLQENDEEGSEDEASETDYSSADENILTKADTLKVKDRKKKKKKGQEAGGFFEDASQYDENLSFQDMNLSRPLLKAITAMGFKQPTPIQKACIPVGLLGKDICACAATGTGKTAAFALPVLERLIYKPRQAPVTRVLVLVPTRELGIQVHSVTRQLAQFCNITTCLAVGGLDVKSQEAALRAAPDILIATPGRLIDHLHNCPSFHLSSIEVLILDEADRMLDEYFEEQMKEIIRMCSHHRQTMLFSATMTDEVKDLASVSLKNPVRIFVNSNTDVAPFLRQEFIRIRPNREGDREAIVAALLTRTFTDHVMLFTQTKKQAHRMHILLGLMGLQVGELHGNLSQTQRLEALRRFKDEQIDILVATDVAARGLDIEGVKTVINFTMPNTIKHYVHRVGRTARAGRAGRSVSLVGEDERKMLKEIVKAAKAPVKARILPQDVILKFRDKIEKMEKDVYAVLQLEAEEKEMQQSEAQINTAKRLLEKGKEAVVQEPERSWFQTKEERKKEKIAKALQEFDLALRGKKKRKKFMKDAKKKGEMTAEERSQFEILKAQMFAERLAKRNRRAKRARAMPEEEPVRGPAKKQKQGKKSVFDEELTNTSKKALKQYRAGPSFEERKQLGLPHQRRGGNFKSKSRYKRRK
UniProt Q92499: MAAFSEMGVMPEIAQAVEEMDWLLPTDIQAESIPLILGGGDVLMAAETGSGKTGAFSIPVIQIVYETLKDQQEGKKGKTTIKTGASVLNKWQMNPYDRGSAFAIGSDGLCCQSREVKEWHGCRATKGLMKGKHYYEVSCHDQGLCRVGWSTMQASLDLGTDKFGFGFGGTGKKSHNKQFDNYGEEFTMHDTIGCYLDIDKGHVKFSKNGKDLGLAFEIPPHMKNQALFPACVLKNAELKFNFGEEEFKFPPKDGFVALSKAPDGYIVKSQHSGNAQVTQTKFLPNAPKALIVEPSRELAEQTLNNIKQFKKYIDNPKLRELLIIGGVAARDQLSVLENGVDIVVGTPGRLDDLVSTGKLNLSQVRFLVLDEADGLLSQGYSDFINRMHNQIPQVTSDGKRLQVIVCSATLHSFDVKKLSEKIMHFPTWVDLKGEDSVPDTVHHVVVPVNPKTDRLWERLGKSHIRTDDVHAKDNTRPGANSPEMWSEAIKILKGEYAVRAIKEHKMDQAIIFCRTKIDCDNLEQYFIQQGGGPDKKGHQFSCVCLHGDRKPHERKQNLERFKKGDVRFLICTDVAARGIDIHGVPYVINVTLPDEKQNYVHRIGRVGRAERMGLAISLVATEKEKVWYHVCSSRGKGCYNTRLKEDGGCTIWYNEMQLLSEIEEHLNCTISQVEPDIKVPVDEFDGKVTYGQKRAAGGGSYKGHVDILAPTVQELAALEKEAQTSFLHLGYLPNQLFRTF
UniProt P27707: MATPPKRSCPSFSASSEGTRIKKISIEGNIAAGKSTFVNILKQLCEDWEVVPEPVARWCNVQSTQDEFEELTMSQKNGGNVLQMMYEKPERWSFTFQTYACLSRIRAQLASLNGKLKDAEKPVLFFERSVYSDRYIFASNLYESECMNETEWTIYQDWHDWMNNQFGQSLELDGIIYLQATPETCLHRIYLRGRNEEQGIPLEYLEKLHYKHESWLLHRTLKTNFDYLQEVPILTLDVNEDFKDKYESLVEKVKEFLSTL
UniProt Q92841: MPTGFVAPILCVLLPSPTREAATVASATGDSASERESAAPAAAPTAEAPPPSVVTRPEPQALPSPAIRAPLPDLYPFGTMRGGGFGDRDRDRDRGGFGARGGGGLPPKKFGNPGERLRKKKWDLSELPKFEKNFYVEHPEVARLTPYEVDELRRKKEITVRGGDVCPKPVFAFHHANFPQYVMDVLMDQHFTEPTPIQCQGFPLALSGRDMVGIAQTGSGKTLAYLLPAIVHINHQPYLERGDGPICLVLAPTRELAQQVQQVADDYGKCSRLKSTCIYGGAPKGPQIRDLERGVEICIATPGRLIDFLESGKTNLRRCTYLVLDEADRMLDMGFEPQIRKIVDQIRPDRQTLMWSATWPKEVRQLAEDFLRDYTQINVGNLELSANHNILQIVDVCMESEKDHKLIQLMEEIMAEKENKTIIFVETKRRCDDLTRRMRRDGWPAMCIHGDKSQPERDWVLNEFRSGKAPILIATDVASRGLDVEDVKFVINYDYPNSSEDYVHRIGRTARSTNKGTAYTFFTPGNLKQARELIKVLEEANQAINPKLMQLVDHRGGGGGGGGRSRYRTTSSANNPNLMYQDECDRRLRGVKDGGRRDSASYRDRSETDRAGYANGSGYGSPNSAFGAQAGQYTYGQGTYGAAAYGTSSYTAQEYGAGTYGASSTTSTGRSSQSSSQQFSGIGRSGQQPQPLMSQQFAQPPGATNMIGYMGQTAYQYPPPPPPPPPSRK
UniProt Q5T1V6: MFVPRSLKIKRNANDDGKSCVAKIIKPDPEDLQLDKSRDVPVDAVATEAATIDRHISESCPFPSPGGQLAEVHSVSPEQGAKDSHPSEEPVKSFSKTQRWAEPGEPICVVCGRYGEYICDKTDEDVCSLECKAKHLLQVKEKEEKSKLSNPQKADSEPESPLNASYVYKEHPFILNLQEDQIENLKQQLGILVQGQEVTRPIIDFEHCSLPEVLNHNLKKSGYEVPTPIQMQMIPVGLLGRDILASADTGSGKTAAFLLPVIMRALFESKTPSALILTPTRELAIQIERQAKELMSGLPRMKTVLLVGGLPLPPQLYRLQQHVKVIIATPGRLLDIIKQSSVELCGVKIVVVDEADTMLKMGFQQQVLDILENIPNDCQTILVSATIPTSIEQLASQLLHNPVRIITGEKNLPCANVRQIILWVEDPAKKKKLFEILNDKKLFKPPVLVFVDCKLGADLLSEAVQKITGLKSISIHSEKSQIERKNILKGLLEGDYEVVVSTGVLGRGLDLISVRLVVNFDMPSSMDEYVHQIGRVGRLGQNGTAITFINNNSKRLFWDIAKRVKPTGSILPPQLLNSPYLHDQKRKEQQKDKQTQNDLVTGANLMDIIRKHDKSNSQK
UniProt O15121: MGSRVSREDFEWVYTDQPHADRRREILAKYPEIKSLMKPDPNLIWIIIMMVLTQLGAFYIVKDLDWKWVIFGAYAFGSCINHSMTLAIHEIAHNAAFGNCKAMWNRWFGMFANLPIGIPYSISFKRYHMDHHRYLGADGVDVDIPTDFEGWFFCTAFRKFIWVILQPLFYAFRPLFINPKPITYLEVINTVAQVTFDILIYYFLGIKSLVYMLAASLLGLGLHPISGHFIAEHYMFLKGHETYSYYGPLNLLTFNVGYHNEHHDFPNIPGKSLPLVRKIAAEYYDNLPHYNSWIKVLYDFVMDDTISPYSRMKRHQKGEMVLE
UniProt Q9UJW0, whole entry, looked up: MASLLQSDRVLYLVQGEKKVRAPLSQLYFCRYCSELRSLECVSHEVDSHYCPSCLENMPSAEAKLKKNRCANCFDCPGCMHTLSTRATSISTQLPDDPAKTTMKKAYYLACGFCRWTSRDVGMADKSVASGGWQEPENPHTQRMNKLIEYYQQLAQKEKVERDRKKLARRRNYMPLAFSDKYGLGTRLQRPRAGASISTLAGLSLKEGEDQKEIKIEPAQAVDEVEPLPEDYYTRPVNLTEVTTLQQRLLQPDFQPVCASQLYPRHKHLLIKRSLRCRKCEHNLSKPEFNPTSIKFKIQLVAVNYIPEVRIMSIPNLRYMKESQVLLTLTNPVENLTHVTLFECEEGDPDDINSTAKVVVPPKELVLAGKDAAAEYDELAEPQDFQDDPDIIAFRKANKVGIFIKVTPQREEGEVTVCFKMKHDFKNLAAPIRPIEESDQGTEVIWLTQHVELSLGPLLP
UniProt Q9BQ39: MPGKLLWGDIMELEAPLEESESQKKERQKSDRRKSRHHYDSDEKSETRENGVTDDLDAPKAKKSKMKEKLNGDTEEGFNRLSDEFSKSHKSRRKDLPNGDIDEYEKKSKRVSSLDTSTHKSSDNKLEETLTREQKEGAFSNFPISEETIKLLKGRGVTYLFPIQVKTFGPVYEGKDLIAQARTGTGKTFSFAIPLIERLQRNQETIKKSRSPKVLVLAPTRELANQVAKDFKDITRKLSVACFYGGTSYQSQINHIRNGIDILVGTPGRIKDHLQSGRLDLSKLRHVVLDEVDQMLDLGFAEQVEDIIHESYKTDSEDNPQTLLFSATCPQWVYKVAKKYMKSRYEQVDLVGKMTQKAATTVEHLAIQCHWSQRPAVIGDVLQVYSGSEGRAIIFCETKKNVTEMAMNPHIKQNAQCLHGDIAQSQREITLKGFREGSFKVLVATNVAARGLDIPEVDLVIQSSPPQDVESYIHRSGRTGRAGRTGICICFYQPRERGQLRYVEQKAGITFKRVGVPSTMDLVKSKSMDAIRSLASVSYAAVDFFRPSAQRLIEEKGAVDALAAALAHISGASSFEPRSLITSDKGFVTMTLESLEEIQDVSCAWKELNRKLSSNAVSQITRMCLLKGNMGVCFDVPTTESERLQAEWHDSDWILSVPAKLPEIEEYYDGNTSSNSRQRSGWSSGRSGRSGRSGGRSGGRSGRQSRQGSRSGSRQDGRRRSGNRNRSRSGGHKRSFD
UniProt Q8N465: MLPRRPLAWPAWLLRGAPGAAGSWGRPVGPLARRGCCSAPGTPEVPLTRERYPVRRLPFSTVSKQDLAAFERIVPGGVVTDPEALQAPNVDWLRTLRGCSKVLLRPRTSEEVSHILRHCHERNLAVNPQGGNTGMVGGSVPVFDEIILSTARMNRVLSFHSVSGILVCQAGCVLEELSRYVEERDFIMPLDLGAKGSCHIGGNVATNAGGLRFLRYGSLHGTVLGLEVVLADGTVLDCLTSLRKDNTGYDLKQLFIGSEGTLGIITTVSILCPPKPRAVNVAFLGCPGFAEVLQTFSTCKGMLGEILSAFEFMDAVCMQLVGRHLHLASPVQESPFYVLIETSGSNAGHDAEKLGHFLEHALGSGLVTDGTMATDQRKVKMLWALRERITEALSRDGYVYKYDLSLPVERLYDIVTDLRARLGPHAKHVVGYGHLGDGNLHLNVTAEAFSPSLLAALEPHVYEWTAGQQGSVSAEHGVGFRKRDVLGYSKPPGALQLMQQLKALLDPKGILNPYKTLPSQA
UniProt Q96C86: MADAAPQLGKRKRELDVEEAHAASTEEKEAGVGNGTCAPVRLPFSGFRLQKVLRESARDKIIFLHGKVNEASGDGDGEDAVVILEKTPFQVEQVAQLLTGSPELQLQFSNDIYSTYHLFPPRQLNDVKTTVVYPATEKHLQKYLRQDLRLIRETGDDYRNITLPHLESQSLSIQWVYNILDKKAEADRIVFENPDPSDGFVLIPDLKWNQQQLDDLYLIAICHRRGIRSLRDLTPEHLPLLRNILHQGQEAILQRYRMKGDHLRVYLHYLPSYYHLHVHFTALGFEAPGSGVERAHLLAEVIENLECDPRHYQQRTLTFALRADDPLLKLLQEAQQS
UniProt O00399, whole entry, looked up: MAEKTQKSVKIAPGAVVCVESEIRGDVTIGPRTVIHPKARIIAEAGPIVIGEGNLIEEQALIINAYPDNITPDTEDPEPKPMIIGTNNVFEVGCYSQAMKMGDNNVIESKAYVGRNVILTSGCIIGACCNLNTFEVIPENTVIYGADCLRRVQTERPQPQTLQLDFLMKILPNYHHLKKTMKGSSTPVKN

[2] = compound: C/C(=N\NC(=O)C1=CC(=CC=C1)S(=O)(=O)N2CCOCC2)/C3=C(C=CC(=C3)Cl)O
In short: as §1

[3] = compound: C1=CC(=CC=C1C2=NC3=C(N2)C=C(C=C3)C(=O)N)OC4=CC=C(C=C4)Cl
In short: as §1

[4] = compound: C1=CC2=C(C=CC(=C2)/C=C\3/C(=O)NC(=NCC4=CC=CS4)S3)N=C1
In short: as §1

[5] = compound: C1=CC2=NC=CN=C2C=C1/C=C/3\C(=O)NC(=O)S3
In short: as §1

[6] = compound: C1=CC=C(C=C1)C2=NC(=C(N2)C3=CC=NC=C3)C4=CC(=C(C=C4)Cl)O
In short: as §1

[7] = compound: C1=CC=C2C(=C1)C3=NNC4=CC=CC(=C43)C2=O
In short: as §1

[8] = compound: C1CCN(C1)C(=O)NC2=CC=CC(=C2)NC3=NC=C(C(=N3)NCCC4=CN=CN4)Br
In short: as §1

[9] = compound: C1CN(CCC1(CC2=CC=C(C=C2)Cl)N)C3=NC=NC4=C3C=CN4
In short: as §1

[10] = compound: C1COCCN1CCN2C3=CC=CC=C3N=C2NC(=O)C4=CC(=CC=C4)[N+](=O)[O-] [IRAK-1-4 Inhibitor I]
In short: as §1

[11] = compound: C=CC(=O)N1CCC[C@@H](n2nc(-c3ccc(Oc4ccccc4)cc3)c3c(N)ncnc32)C1 [ibrutinib]
In short: as §1

[12] = compound: CC(=O)c1cnc2ccc(-c3cc(Cl)c(O)c(Cl)c3)nc2c1N[C@H]1CC[C@H](CN(C)C)CC1
In short: as §1

[13] = compound: CC(C)(C)Cn1c(N)nc2ccc(-c3[nH]c(C(C)(C)C)nc3-c3ccc(F)cc3)nc21 [ralimetinib]
In short: as §1

[14] = compound: CC(C)(O)CC(=O)NCCn1ccc2ncnc(Nc3ccc(Oc4cccc(C(F)(F)F)c4)c(Cl)c3)c21
In short: as §1

[15] = compound: CC(C)C1=C2N=C(C=C(N2N=C1)NCC3=CC=CC=C3)NCCCCCCN
In short: as §1

[16] = compound: CC1=C(C(CC(=O)N1)C2=CC=C(C=C2)C(F)(F)F)C(=O)NC3=C(C=C4C(=C3)C=NN4)F
In short: as §1

[17] = compound: CC1=C(C2=C(C=C1)C(=O)C3=CC=CC=C3N2CCCN)C
In short: as §1

[18] = compound: CC1=C(C=C(C=C1)NC(=O)C2=CC(=CC=C2)C(C)(C)C#N)NC3=CC4=C(C=C3)N=CN(C4=O)C
In short: as §1

[19] = compound: CC1=C(C=C(C=C1)NC(=O)C2=CC(=CC=C2)N(C)C)NC(=O)C3=CC=C(C=C3)O
In short: as §1

[20] = compound: CC1=CC=C(C=C1)SC2=C3C=C(SC3=CN=C2)C(=O)N
In short: as §1

Measured: log2 fold change

DAGLB (UniProt Q8NCG7)
inactive: [1] -0.038 | [2] -0.038 | [3] -0.041 | [4] -0.017 | [5] -0.014 | [6] -0.004 | [7] -0.08 | [8] -0.023 | [9] -0.013 | [10] 0.019 | [11] -0.015 | [12] -0.011 | [13] 0.009 | [14] -0.006 | [15] -0.015 | [16] 0 | [17] 0.036 | [18] -0.023 | [19] 0.015 | [20] 0.012

DDX46 (UniProt Q7L014)
inactive: [1] 0.019 | [2] -0.009 | [3] 0.019 | [4] 0.021 | [5] -0.004 | [6] 0.006 | [7] -0.05 | [8] -0.033 | [9] 0.004 | [10] -0.022 | [11] 0.002 | [12] -0.007 | [13] 0.021 | [14] 0.025 | [15] 0.03 | [16] -0.017 | [17] -0.025 | [18] -0.007 | [19] 0.032 | [20] 0.005

DDX27 (UniProt Q96GQ7)
inactive: [1] -0.034 | [2] -0.017 | [3] -0.024 | [4] 0.003 | [5] -0.004 | [6] -0.009 | [7] -0.049 | [8] 0 | [9] -0.003 | [10] 0.005 | [11] 0.039 | [12] 0.01 | [13] 0.033 | [14] -0.016 | [15] 0.014 | [16] -0.032 | [17] -0.049 | [18] 0.024 | [19] 0.019 | [20] 0.027

DDX1 (UniProt Q92499)
inactive: [1] 0.022 | [2] 0.038 | [3] 0.003 | [4] 0 | [5] 0.01 | [6] 0.02 | [7] -0.025 | [8] -0.007 | [9] -0.011 | [10] 0.002 | [11] 0.009 | [12] -0.004 | [13] -0.001 | [14] 0.016 | [15] 0.022 | [16] -0.009 | [17] -0.025 | [18] 0.039 | [19] -0.008 | [20] 0.035

DCK (UniProt P27707)
inactive: [1] -0.019 | [2] 0.002 | [3] 0.01 | [4] -0.006 | [5] -0.041 | [6] -0.007 | [7] 0.015 | [8] -0.037 | [9] 0.033 | [10] -0.004 | [11] -0.002 | [12] 0.074 | [13] -0.005 | [14] -0.004 | [15] 0.007 | [16] -0.039 | [17] -0.033 | [18] 0.064 | [19] 0.014 | [20] 0.002

DDX17 (UniProt Q92841)
inactive: [1] -0.002 | [2] 0.051 | [3] 0.018 | [4] -0.009 | [5] -0.022 | [6] -0.004 | [7] -0.024 | [8] -0.008 | [9] -0.005 | [10] -0.026 | [11] 0.011 | [12] 0 | [13] -0.046 | [14] 0.035 | [15] 0.018 | [16] -0.011 | [17] 0.022 | [18] 0.008 | [19] -0.027 | [20] 0.023

DDX59 (UniProt Q5T1V6)
inactive: [1] -0.022 | [2] -0.015 | [3] 0.03 | [4] -0.011 | [5] -0.038 | [6] -0.001 | [7] 0.024 | [8] -0.017 | [9] -0.061 | [10] -0.017 | [11] -0.008 | [12] 0.013 | [13] 0.064 | [14] 0.018 | [15] 0.068 | [16] 0.026 | [17] -0.005 | [18] -0.01 | [19] -0.004 | [20] -0.011

DCAF6 isoform 3 (UniProt Q58WW2)
inactive: [1] -0.05 | [2] 0.024 | [3] 0.008 | [4] 0.03 | [5] -0.015 | [6] -0.008 | [7] -0.017 | [8] -0.003 | [9] -0.013 | [10] -0.009 | [11] 0.046 | [12] 0.008 | [13] 0.031 | [14] -0.008 | [15] -0.005 | [16] 0.012 | [17] 0.015 | [18] -0.022 | [19] 0.012 | [20] -0.008

DEGS1 (UniProt O15121)
inactive: [1] -0.096 | [2] -0.133 | [3] 0.011 | [4] 0.088 | [5] -0.107 | [6] 0.079 | [7] -0.023 | [8] 0.143 | [9] 0.033 | [10] 0.073 | [11] 0.065 | [12] -0.046 | [13] 0.098 | [14] -0.018 | [15] 0.043 | [16] -0.008 | [17] -0.108 | [18] 0.071 | [19] -0.092 | [20] -0.03

DDX18 (UniProt Q9NVP1)
inactive: [1] -0.015 | [2] -0.033 | [3] -0.031 | [4] 0.005 | [5] -0.029 | [6] 0.025 | [7] 0.007 | [8] 0.004 | [9] -0.014 | [10] -0.052 | [11] -0.018 | [12] -0.006 | [13] -0.003 | [14] 0.012 | [15] -0.017 | [16] 0.013 | [17] -0.002 | [18] -0.032 | [19] 0.004 | [20] 0.001

DCTN4 (UniProt Q9UJW0)
inactive: [1] -0.009 | [2] -0.246 | [3] 0.017 | [4] 0.011 | [5] 0.003 | [6] -0.003 | [7] 0.027 | [8] -0.026 | [9] 0.013 | [10] -0.015 | [11] 0.051 | [12] 0.008 | [13] 0.023 | [14] -0.038 | [15] -0.007 | [16] -0.009 | [17] -0.037 | [18] 0.022 | [19] -0.024 | [20] -0.012

2 consecutive entries already listed, for reference:
DCAF6 isoform 3 (UniProt Q58WW2)
inactive: [1] -0.05 | [2] 0.024 | [3] 0.008 | [4] 0.03 | [5] -0.015 | [6] -0.008 | [7] -0.017 | [8] -0.003 | [9] -0.013 | [10] -0.009 | [11] 0.046 | [12] 0.008 | [13] 0.031 | [14] -0.008 | [15] -0.005 | [16] 0.012 | [17] 0.015 | [18] -0.022 | [19] 0.012 | [20] -0.008

DEGS1 (UniProt O15121)
inactive: [1] -0.096 | [2] -0.133 | [3] 0.011 | [4] 0.088 | [5] -0.107 | [6] 0.079 | [7] -0.023 | [8] 0.143 | [9] 0.033 | [10] 0.073 | [11] 0.065 | [12] -0.046 | [13] 0.098 | [14] -0.018 | [15] 0.043 | [16] -0.008 | [17] -0.108 | [18] 0.071 | [19] -0.092 | [20] -0.03

Next part

DDX50 (UniProt Q9BQ39)
inactive: [1] -0.034 | [2] -0.469 | [3] -0.056 | [4] 0.07 | [5] 0.125 | [6] -0.054 | [7] 0.014 | [8] 0.098 | [9] -0.038 | [10] 0.026 | [11] 0.059 | [12] 0.004 | [13] 0.02 | [14] -0.007 | [15] 0.029 | [16] -0.01 | [17] -0.036 | [18] -0.032 | [19] 0.022 | [20] 0.015

D2HGDH (UniProt Q8N465)
inactive: [1] 0.034 | [2] 0.03 | [3] 0.061 | [4] -0.016 | [5] -0.009 | [6] 0.021 | [7] -0.079 | [8] -0.044 | [9] 0.071 | [10] 0.06 | [11] -0.055 | [12] -0.02 | [13] -0.025 | [14] -0.009 | [15] 0.008 | [16] 0.03 | [17] -0.037 | [18] 0.057 | [19] -0.008 | [20] -0.045

DCPS (UniProt Q96C86)
inactive: [1] -0.025 | [2] -0.018 | [3] 0.029 | [4] -0.016 | [5] -0.015 | [6] -0.008 | [7] -0.017 | [8] -0.029 | [9] 0.08 | [10] 0.005 | [11] 0 | [12] -0.01 | [13] 0.005 | [14] -0.026 | [15] -0.02 | [16] -0.042 | [17] 0.012 | [18] 0.027 | [19] -0.013 | [20] -0.015

DCTN6 (UniProt O00399)
inactive: [1] -0.05 | [2] 0.041 | [3] 0.018 | [4] -0.003 | [5] 0.049 | [6] -0.028 | [7] -0.01 | [8] -0.014 | [9] 0.009 | [10] -0.008 | [11] 0.135 | [12] -0.016 | [13] 0.006 | [14] -0.036 | [15] 0.011 | [16] 0.075 | [17] -0.044 | [18] 0.025 | [19] 0.008 | [20] -0.035

DBNL isoform 3 (UniProt Q9UJU6)
inactive: [1] -0.016 | [2] 0.055 | [3] 0.036 | [4] -0.018 | [5] 0.029 | [6] 0.018 | [7] -0.01 | [8] 0.018 | [9] -0.006 | [10] 0.003 | [11] -0.015 | [12] -0.011 | [13] -0.014 | [14] -0.005 | [15] -0.029 | [16] -0.012 | [17] 0.006 | [18] -0.018 | [19] 0.002 | [20] -0.013
